Reference: paper PMC6250667

By UniProt entry, the sequences of proteins in these tests, tags left out. Where a name states a change or a piece, a line headed by the entry shows the natural chain unless it says otherwise.
UniProt Q76MZ3: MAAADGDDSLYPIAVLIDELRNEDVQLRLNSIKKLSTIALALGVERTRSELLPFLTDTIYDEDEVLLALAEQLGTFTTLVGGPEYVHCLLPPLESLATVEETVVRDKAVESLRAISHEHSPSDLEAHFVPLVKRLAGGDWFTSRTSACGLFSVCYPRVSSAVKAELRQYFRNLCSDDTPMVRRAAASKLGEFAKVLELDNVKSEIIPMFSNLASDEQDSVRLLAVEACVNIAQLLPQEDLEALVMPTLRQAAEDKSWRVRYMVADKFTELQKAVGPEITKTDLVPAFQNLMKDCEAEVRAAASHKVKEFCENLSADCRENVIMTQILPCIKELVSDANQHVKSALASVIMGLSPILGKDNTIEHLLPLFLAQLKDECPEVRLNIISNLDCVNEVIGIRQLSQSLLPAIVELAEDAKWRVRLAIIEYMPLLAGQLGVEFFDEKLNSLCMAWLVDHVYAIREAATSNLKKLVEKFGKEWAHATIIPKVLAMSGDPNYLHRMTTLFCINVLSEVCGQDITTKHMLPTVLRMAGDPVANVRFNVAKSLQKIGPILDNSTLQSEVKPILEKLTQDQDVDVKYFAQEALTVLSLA

Biological target: T1, FLAG Foxi3 FL 1–399 (mouse) (UniProt D3Z120)
T1 sequence: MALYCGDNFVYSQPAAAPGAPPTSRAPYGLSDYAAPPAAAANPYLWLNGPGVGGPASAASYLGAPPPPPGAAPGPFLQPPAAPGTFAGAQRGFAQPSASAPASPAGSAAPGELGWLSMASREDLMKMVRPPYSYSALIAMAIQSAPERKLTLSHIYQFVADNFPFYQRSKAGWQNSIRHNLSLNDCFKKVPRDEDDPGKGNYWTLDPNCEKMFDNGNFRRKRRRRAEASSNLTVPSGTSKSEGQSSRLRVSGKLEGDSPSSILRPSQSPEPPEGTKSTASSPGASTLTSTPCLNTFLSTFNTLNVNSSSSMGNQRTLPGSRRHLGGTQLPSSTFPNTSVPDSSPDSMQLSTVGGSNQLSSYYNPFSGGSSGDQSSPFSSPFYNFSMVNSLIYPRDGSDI
Assay: co-IP; Myc-tagged PP2A subunits co-transfected with FLAG Foxi3 in HEK-293T; anti-Flag M2 magnetic beads, 500 µg lysate, overnight at 4 °C, CoIP lysis buffer (Tris-HCl 25 mM pH 7.5, NaCl 150 mM, EDTA 1 mM, NP-40 1%, glycerol 5%, DTT 1 mM, phosphatase inhibitors); blot with MYC antibody

binding: binds
Substance: Myc-tagged PPP2R1A (from UniProt Q76MZ3)

No constants are given. Whether binding was seen depends on the method and setting. Binding seen in cells or lysates may run through a third protein. Binding calls can cover weak binding; strength is not graded here. Sequences can lack the tags named with a protein.
